Results from patent publication US6680289B1, “Methods, compositions, and articles for odor control” (The Proctor & Gamble Company, priority 1999, dated 2004).
Some entries share one result that the patent states for a list of compounds.

Assay: Surface tension of surfactant solution with and without cyclodextrin (compatibility test)
Format: physicochemical
Settings: typical cyclodextrin like hydroxypropyl beta-cyclodextrin and methylated beta-cyclodextrin

With `CCCCCCCCCCCCOS(=O)(=O)[O-].[Na+]` [sodium dodecyl sulfate] the “elevation in surface tension in the presence of cyclodextrin” value was > 10%.

In the case of dodecanolpoly(6)ethoxylate, the “elevation in surface tension in the presence of cyclodextrin” value is reported as > 10%.
